Source: PubChem BioAssay AID1487 (National Center for Advancing Translational Sciences (NCATS), 2009)
Some of the results follow. The main result of the screen is listed elsewhere. These columns were measured beside it and carry no call. The list favours compounds with an active or inconclusive main result. The note in brackets gives the kind of curve behind each potency; many fits are weak.

Assay: qHTS Assay for Modulators of Lamin A Splicing
Settings: HeLa LMNA splicing GFP/RFP minigene ratio, 48 h
Procedure, shortened: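 S3 HeLa stable clones carrying a lamin A-EGFP splicing minigene plus DsRed2 were seeded at 600 cells/well in Opti-MEM with 2% FBS, pin-dosed and incubated 48 h at 37°C. Acumen cytometry (488 nm) gave the GFP/RFP total-intensity ratio.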

[1] = measured here: GFP splicing reporter channel
[2] = measured here: RFP viability control channel

Structure (SMILES) | AC50 [1] | AC50 [2]
O=c1[nH]c(NNC(=S)NCc2ccccc2)nc2c1C1(CCCCC1)Cc1ccccc1-2 | 35.5 µM [falling, single point] | 25.1 µM [falling, single point]
CC(C)c1ccccc1OCCNC(=O)c1cncc(Br)c1 | – | 35.5 µM [falling, partial curve, poor fit]
Cc1cccc(NC(=O)CSc2ccc(C(N)=O)cc2[N+](=O)[O-])c1C | – | 0.562 µM [rising, single point]
Cc1c(NC(=O)c2cc(-c3cccs3)nc3ccccc23)c(=O)n(-c2ccccc2)n1C | – | 5.62 µM [rising, full curve, poor fit]
CCC(OC(=O)C1=Cc2ccccc2OC1)C(=O)NC1CCCC1 (stereo not given) | 35.5 µM [rising, single point] | 22.4 µM [rising, partial curve]
COC(=O)c1ccc(O)c(Sc2cc(C(=O)OC)ccc2O)c1 | – | 14.1 µM [rising, partial curve]
COc1ccccc1NC(=S)NC(=O)C(C)(C)C | – | 0.0447 µM [falling, full curve, poor fit]
CCCSc1nc(=O)c2c(n1C)NC(=O)CC2c1cccc(F)c1F (stereo not given) | 0.00708 µM [rising, full curve, poor fit] | –
Cc1ccc(-c2noc(C3CCCN(S(=O)(=O)c4ccc5ccccc5c4)C3)n2)o1 (stereo not given) | – | 17.8 µM [rising, single point]
CSc1ccc(Cl)c(C(=O)OCC(=O)N(C)CCC#N)c1 | 25.1 µM [falling, single point] | –
COc1ccc(NC(=O)N[C@@H](CCSC)C(=O)O)cc1Cl | 12.6 µM [rising, partial curve] | 0.447 µM [rising, full curve, poor fit]
CC(Oc1ccc(Cl)cc1)C(=O)NCCN1C(=O)S/C(=C\c2cccnc2)C1=O (stereo not given) | – | 4.47 µM [rising, full curve]
COc1ccc(CNc2cc(-c3cccc(C#N)c3)ncn2)c(OC)c1 | 4.47 µM [falling, partial curve, poor fit] | –
C[C@H](Oc1ccccc1)C(=O)N[C@@H]1C(=O)N2[C@@H]1SC(C)(C)[C@@H]2C(=O)O | 0.562 µM [falling, full curve, poor fit] | 0.0631 µM [falling, single point]
Cc1cccc(OCc2nnc(SCC(=O)OC3CCCCC3)o2)c1 | – | 39.8 µM [falling, partial curve, poor fit]
COCCN1C(=O)N[C@@H](c2cccc(C(F)(F)F)c2)[C@@H](C(=O)OC)[C@H]1C | – | 1.26 µM [falling, single point]

Reprinted from the entries so far (two entries):
Structure (SMILES) | AC50 [1] | AC50 [2]
Cc1c(NC(=O)c2cc(-c3cccs3)nc3ccccc23)c(=O)n(-c2ccccc2)n1C | – | 5.62 µM [rising, full curve, poor fit]
CCC(OC(=O)C1=Cc2ccccc2OC1)C(=O)NC1CCCC1 (stereo not given) | 35.5 µM [rising, single point] | 22.4 µM [rising, partial curve]
